These are yes or no findings as the source states them, for the method shown. Binding seen in cells or lysates may run through a third protein. Some entries that bind do so weakly or less than the wild type.

Amino acid sequences for entries named in this document (tags omitted).
UniProt P26196: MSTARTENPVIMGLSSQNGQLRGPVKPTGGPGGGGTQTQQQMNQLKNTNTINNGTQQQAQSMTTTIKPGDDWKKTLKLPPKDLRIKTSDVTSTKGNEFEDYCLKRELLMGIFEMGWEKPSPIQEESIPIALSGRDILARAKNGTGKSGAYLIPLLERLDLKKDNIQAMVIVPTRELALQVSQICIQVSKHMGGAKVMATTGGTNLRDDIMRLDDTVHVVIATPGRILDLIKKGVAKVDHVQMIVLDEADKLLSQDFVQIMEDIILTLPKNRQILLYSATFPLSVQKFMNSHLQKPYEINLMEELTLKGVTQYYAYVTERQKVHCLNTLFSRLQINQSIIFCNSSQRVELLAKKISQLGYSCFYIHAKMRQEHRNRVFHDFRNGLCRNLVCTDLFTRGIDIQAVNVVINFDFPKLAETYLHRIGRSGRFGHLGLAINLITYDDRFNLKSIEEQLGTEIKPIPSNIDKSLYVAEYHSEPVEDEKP

Test [1] has as its target DCP2 (human (endogenous in HCT116)) (UniProt Q8IU60). In words: co-IP; endogenous DCP2 immunoprecipitated from HCT116 lysates (300 ug protein; E1A buffer with 150 mM NaCl, 0.5% IGEPAL; antibody overnight at 4°C, protein A/G beads), Western blot; control, shLUC, shDCP1a, shDCP1b, DCP1a KO and DCP1b KO cells, with or without ectopic DCP1b. In general terms: In western blotting, separated proteins are transferred to a membrane and probed.

The target in test [2] is DDX6 (human (endogenous in HCT116)) (UniProt P26196). Briefly: co-IP; endogenous DDX6 immunoprecipitated from HCT116 lysates (300 ug protein; E1A buffer; antibody overnight at 4°C, protein A/G beads), IgG control, Western blot; control, DCP1a KO and DCP1b KO cells.

B1: EDC4 (protein, UniProt Q6P2E9 1-1401)
chain: MASCASIDIEDATQHLRDILKLDRPAGGPSAESPRPSSAYNGDLNGLLVPDPLCSGDSTSANKTGLRTMPPINLQEKQVICLSGDDSSTCIGILAKEVEIVASSDSSISSKARGSNKVKIQPVAKYDWEQKYYYGNLIAVSNSFLAYAIRAANNGSAMVRVISVSTSERTLLKGFTGSVADLAFAHLNSPQLACLDEAGNLFVWRLALVNGKIQEEILVHIRQPEGTPLNHFRRIIWCPFIPEESEDCCEESSPTVALLHEDRAEVWDLDMLRSSHSTWPVDVSQIKQGFIVVKGHSTCLSEGALSPDGTVLATASHDGYVKFWQIYIEGQDEPRCLHEWKPHDGRPLSCLLFCDNHKKQDPDVPFWRFLITGADQNRELKMWCTVSWTCLQTIRFSPDIFSSVSVPPSLKVCLDLSAEYLILSDVQRKVLYVMELLQNQEEGHACFSSISEFLLTHPVLSFGIQVVSRCRLRHTEVLPAEEENDSLGADGTHGAGAMESAAGVLIKLFCVHTKALQDVQIRFQPQLNPDVVAPLPTHTAHEDFTFGESRPELGSEGLGSAAHGSQPDLRRIVELPAPADFLSLSSETKPKLMTPDAFMTPSASLQQITASPSSSSSGSSSSSSSSSSSLTAVSAMSSTSAVDPSLTRPPEELTLSPKLQLDGSLTMSSSGSLQASPRGLLPGLLPAPADKLTPKGPGQVPTATSALSLELQEVEPLGLPQASPSRTRSPDVISSASTALSQDIPEIASEALSRGFGSSAPEGLEPDSMASAASALHLLSPRPRPGPELGPQLGLDGGPGDGDRHNTPSLLEAALTQEASTPDSQVWPTAPDITRETCSTLAESPRNGLQEKHKSLAFHRPPYHLLQQRDSQDASAEQSDHDDEVASLASASGGFGTKVPAPRLPAKDWKTKGSPRTSPKLKRKSKKDDGDAAMGSRLTEHQVAEPPEDWPALIWQQQRELAELRHSQEELLQRLCTQLEGLQSTVTGHVERALETRHEQEQRRLERALAEGQQRGGQLQEQLTQQLSQALSSAVAGRLERSIRDEIKKTVPPCVSRSLEPMAGQLSNSVATKLTAVEGSMKENISKLLKSKNLTDAIARAAADTLQGPMQAAYREAFQSVVLPAFEKSCQAMFQQINDSFRLGTQEYLQQLESHMKSRKAREQEAREPVLAQLRGLVSTLQSATEQMAATVAGSVRAEVQHQLHVAVGSLQESILAQVQRIVKGEVSVALKEQQAAVTSSIMQAMRSAAGTPVPSAHLDCQAQQAHILQLLQQGHLNQAFQQALTAADLNLVLYVCETVDPAQVFGQPPCPLSQPVLLSLIQQLASDLGTRTDLKLSYLEEAVMHLDHSDPITRDHMGSVMAQVRQKLFQFLQAEPHNSLGKAARRLSLMLHGLVTPSLP
Consider B1, for which the binding result in test [1] and in test [2] was “binds” in each case.

B2: EDC3 (protein, UniProt Q96F86 1-508)
chain: MATDWLGSIVSINCGDSLGVYQGRVSAVDQVSQTISLTRPFHNGVKCLVPEVTFRAGDITELKILEIPGPGDNQHFGDLHQTELGPSGAGCQVGINQNGTGKFVKKPASSSSAPQNIPKRTDVKSQDVAVSPQQQQCSKSYVDRHMESLSQSKSFRRRHNSWSSSSRHPNQATPKKSGLKNGQMKNKDDECFGDDIEEIPDTDFDFEGNLALFDKAAVFEEIDTYERRSGTRSRGIPNERPTRYRHDENILESEPIVYRRIIVPHNVSKEFCTDSGLVVPSISYELHKKLLSVAEKHGLTLERRLEMTGVCASQMALTLLGGPNRLNPKNVHQRPTVALLCGPHVKGAQGISCGRHLANHDVQVILFLPNFVKMLESITNELSLFSKTQGQQVSSLKDLPTSPVDLVINCLDCPENVFLRDQPWYKAAVAWANQNRAPVLSIDPPVHEVEQGIDAKWSLALGLPLPLGEHAGRIYLCDIGIPQQVFQEVGINYHSPFGCKFVIPLHSA
As for B2, the binding entry in test [1] is given as “binds”.

B3: DCP1b (protein, UniProt Q8IZD4 1-617)
chain: MAAVAAGGLVGKGRDISLAALQRHDPYINRIVDVASQVALYTFGHRANEWEKTDVEGTLFVYTRSASPKHGFTIMNRLSMENRTEPITKDLDFQLQDPFLLYRNARLSIYGIWFYDKEECQRIAELMKNLTQYEQLKAHQGTGAGISPVILNSGEGKEVDILRMLIKAKDEYTKCKTCSEPKKITSSSAIYDNPNLIKPIPVKPSENQQQRIPQPNQTLDPEPQHLSLTALFGKQDKATCQETVEPPQTLHQQQQQQQQQQEKLPIRQGVVRSLSYEEPRRHSPPIEKQLCPAIQKLMVRSADLHPLSELPENRPCENGSTHSAGEFFTGPVQPGSPHNIGTSRGVQNASRTQNLFEKLQSTPGAANKCDPSTPAPASSAALNRSRAPTSVTPVAPGKGLAQPPQAYFNGSLPPQTVGHQAHGREQSTLPRQTLPISGSQTGSSGVISPQELLKKLQIVQQEQQLHASNRPALAAKFPVLAQSSGTGKPLESWINKTPNTEQQTPLFQVISPQRIPATAAPSLLMSPMVFAQPTSVPPKERESGLLPVGGQEPPAAATSLLLPIQSPEPSVITSSPLTKLQLQEALLYLIQNDDNFLNIIYEAYLFSMTQAAMKKTM
With B3, in test [2], the binding result was “binds”.
